Measured values from article PMC3342958, “IDN2 and Its Paralogs Form a Complex Required for RNA–Directed DNA Methylation”.

B1: IDP1, yeast two-hybrid fusion (protein, UniProt Q9S9P3 1-634)
chain: MSISDEEAEISESEIEDYSETPYRLLRDGTYKVKVNGQLRCPFCAGKKKQDYKYKELYAHATGVSKGSATRSALQKANHLALAMFLENELAGYAEPVPRPPVVPPQLDETEPNPHNVYVWPWMGIVVNPLKEADDKELLLDSAYWLQTLSKFKPIEVNAFWVEQDSIVGVIAKFNGDWSGFAGATELEKEFETQGSSKKEWTERSGDSESKAYGWCARADDFESQGPIGEYLSKEGQLRTVSDISQKNVQDRNTVLEELSDMIAMTNEDLNKVQYSYNRTAMSLQRVLDEKKNLHQAFADETKKMQQMSLRHIQKILYDKEKLSNELDRKMRDLESRAKQLEKHEALTELDRQKLDEDKRKSDAMNKSLQLASREQKKADESVLRLVEEHQRQKEDALNKILLLEKQLDTKQTLEMEIQELKGKLQVMKHLGDDDDEAVQKKMKEMNDELDDKKAELEGLESMNSVLMTKERQSNDEIQAARKKLIAGLTGLLGAETDIGVKRMGELDEKPFLDVCKLRYSANEAAVEAATLCSTWQENLKNPSWQPFKHEGTGDGAEEVVDEDDEQLKKLKREWGKEVHNAVKTALVEMNEYNASGRYTTPELWNFKEGRKATLKEVITFISNDIKILKRKRT
B2: IDP2, yeast two-hybrid fusion (protein, UniProt F4JH53 1-635)
chain: MDISDEESEISESEIEEYSKTPYHLLRSETYYKVKVNGRLRCPFCVGKKKQDYKYKELHAHATGVSKGSATRSALQKSNHLALAKFLENDLAGYAEPLPRPPVVPPLLDETEPNPHNVYVWPWMGIVVNPLKETDDKELLLDSVYWLQTLSKFKPVEVNAFWVEQDSIVGVIAKFDSDWSGFAAATELEKEFETQGSCKKEWTERSGDSESKAYGWCARADDFQSQGPIGEYLSKEGTLRTVSDILQNNVQDRNTLLDVLSNMIDMTNEDLNKAQHSYNRTAMSLQRVLDEKKNLHQAFAEETKKMQQMSLRHIQRILYDKEKLRNELDRKMRDLESRAKQLEKHEALTELERQKLDEDKRKSDAMNKSLQLASREQKKADESVLRLVEEHQRQKEDALNKILLLEKQLDTKQTLEMEIQELKGKLQVMKHLGDDDDEAVQTKMKEMNDELDDKKAELEDLESMNSVLMTKERQSNDEIQAARQKMIAGLTGLLGAESDIGVKRMGELDEKPFLDVCKLRYSANEARVEAATLCSTWKENLKNPSWQPFKREGTGDGAEEVVDEDDEQLKKLKREWGKEVHNAVKAALVEMNEYNASGRYPTSELWNFKEGRKATLKEVITFISTDIKNLKRKRT
B3: IDN2, yeast two-hybrid fusion (protein, UniProt Q8VZ79 1-647)
chain: MGSTVILSSDDEDSDISESEMDEYGDKMYLNLKGGKLKVRLSPQAFICPYCPNKKKTSFQYKDLLQHASGVGNSNSDKRSAKEKASHLALVKYLQQDLADSASEAEPSSKRQKNGNPIQDCDHDEKLVYPWKGIVVNIPTTKAQDGRSAGESGSKLRDEYILRGFNPTRVRPLWNYLGHSGTAIVEFNKDWNGLHNGLLFDKAYTVDGHGKKDWLKKDGPKLGLYGWIARADDYNGNNIIGENLRKTGDLKTIAELTEEEARKQELLVQNLRQLVEEKKKDMKEIEELCSVKSEELNQLMEEKEKNQQKHYRELNAIQERTMSHIQKIVDDHEKLKRLLESERKKLEIKCNELAKREVHNGTERMKLSEDLEQNASKNSSLELAAMEQQKADEEVKKLAEDQRRQKEELHEKIIRLERQRDQKQAIELEVEQLKGQLNVMKHMASDGDAEVVKEVDIIFKDLGEKEAQLADLDKFNQTLILRERRTNDELQEAHKELVNIMKEWNTNIGVKRMGELVTKPFVDAMQQKYCQQDVEDRAVEVLQLWEHYLKDSDWHPFKRVKLENEDREVEVIDDRDEKLRELKADLGDGPYNAVTKALLEINEYNPSGRYITTELWNFKADKKATLEEGVTCLLDQWEKAKRKRGMA

Molecular target: IDN2 XH domain, yeast two-hybrid bait (Arabidopsis thaliana)
Test: two-hybrid; pGADT7 and pGBKT7 constructs co-transformed into yeast strain PJ694a; spot assay on SD-trp-leu-his with 5 mM to 20 mM 3-AT; HIS reporter

| Binder | binding |
| --- | --- |
| B1 | binds |
| B2 | binds |
| B3 | no binding |

These are yes or no findings as the source states them, for the method shown. Binding can be weak; no strength is given. Tags and fused reporters may be left off the sequences shown.
